{"source": "PubChem BioAssay AID1259254 – NCATS, 2017", "assay": "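Finding genes that stop cells copying their DNA twice in one cycle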 (primary screen)", "system": "human HCT116 colorectal cancer cells", "reagents": "single siRNA against human genes", "time to read-out": "3 days", "measured": "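Nuclei stained with Hoechst and imaged; cell-cycle phase assigned by DNA content; G2 share scaled per plate, non-targeting siRNA 0%, GMNN siRNA 100%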", "scale": "G2 robust z-score: higher = more G2 cells, more excess DNA replication", "call rule": "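An siRNA counts as active if its G2 robust z-score lies at least 5 MADs above the screen median; here such calls match roughly 38% of GMNN control or more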", "note": "The deposit covers about 59,000 reagents; this is an unselected part. About 1,550 of them (2.6%) count as active. 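G2 share is only a proxy for re-replication; each gene was hit by three separate siRNAs, and active genes were retested.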 Reagents against one gene are numbered here. Not all columns of the deposit are shown. Reagent sequences are not shown. Not stated in the record: the amount of reagent."}
{"gene": "PEX26 (GeneID 55670)", "reagent": 1, "G2 robust z-score": -1.15, "Call": "inactive"}
{"gene": "PEX26 (GeneID 55670)", "reagent": 2, "G2 robust z-score": 1.26, "Call": "inactive"}
{"gene": "PEX26 (GeneID 55670)", "reagent": 3, "G2 robust z-score": -0.693, "Call": "inactive"}
{"gene": "TRIP10 (GeneID 9322)", "reagent": 1, "G2 robust z-score": -1.09, "Call": "inactive"}
{"gene": "TRIP10 (GeneID 9322)", "reagent": 2, "G2 robust z-score": -1.04, "Call": "inactive"}
{"gene": "TRIP10 (GeneID 9322)", "reagent": 3, "G2 robust z-score": -0.668, "Call": "inactive"}
{"gene": "SPAST (GeneID 6683)", "reagent": 1, "G2 robust z-score": -0.163, "Call": "inactive"}
{"gene": "SPAST (GeneID 6683)", "reagent": 2, "G2 robust z-score": -0.726, "Call": "inactive"}
{"gene": "SPAST (GeneID 6683)", "reagent": 3, "G2 robust z-score": 0.412, "Call": "inactive"}
{"gene": "DNAH1 (GeneID 25981)", "reagent": 1, "G2 robust z-score": -0.842, "Call": "inactive"}
{"gene": "DNAH1 (GeneID 25981)", "reagent": 2, "G2 robust z-score": 0.281, "Call": "inactive"}
{"gene": "DNAH1 (GeneID 25981)", "reagent": 3, "G2 robust z-score": 0.102, "Call": "inactive"}
{"gene": "ZNF665 (GeneID 79788)", "reagent": 1, "G2 robust z-score": 0.717, "Call": "inactive"}
{"gene": "ZNF665 (GeneID 79788)", "reagent": 2, "G2 robust z-score": 0.898, "Call": "inactive"}
{"gene": "ZNF665 (GeneID 79788)", "reagent": 3, "G2 robust z-score": -0.323, "Call": "inactive"}
{"gene": "NAAA (GeneID 27163)", "reagent": 1, "G2 robust z-score": -0.973, "Call": "inactive"}
{"gene": "NAAA (GeneID 27163)", "reagent": 2, "G2 robust z-score": -0.95, "Call": "inactive"}
{"gene": "NAAA (GeneID 27163)", "reagent": 3, "G2 robust z-score": -0.776, "Call": "inactive"}
{"gene": "HACD4 (GeneID 401494)", "reagent": 1, "G2 robust z-score": 6.82, "Call": "active"}
{"gene": "HACD4 (GeneID 401494)", "reagent": 2, "G2 robust z-score": 0.41, "Call": "inactive"}
{"gene": "HACD4 (GeneID 401494)", "reagent": 3, "G2 robust z-score": -0.66, "Call": "inactive"}
{"gene": "HNRNPK (GeneID 3190)", "reagent": 1, "G2 robust z-score": 4.33, "Call": "inactive"}
{"gene": "HNRNPK (GeneID 3190)", "reagent": 2, "G2 robust z-score": 2.38, "Call": "inactive"}
{"gene": "HNRNPK (GeneID 3190)", "reagent": 3, "G2 robust z-score": 2.08, "Call": "inactive"}
